Experimental data published in the supplement of paper PMC10849652.
The other results are listed elsewhere or left out.

By UniProt entry, the sequences of proteins in these tests, tags left out. Where a name states a change or a piece, a line headed by the entry shows the natural chain unless it says otherwise.
UniProt Q8WUH1: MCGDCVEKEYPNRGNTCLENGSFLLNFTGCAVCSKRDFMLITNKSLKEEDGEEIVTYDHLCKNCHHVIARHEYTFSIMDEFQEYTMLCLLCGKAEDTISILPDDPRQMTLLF
UniProt P30085: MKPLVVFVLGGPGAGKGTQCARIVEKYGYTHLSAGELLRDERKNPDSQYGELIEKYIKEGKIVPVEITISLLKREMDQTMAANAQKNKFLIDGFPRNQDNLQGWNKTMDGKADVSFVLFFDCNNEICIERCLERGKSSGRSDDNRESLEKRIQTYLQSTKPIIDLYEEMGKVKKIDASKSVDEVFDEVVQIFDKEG
UniProt Q96FZ7: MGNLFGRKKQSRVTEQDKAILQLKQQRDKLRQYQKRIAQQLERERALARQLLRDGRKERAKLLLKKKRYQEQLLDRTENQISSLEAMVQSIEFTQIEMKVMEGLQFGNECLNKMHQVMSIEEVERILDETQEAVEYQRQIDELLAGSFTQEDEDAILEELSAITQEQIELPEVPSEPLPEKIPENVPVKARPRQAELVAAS
UniProt Q9Y2R0: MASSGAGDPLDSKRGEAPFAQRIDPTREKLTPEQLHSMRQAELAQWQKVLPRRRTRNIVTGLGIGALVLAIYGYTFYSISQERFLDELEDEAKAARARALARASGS
UniProt Q7Z7K0: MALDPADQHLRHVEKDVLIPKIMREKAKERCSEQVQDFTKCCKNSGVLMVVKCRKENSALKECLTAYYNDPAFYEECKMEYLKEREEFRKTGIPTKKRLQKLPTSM
UniProt Q9GZY4: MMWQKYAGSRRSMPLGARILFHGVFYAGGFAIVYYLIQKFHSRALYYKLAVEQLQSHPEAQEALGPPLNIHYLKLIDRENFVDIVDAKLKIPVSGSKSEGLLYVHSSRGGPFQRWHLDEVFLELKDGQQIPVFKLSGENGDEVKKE
UniProt Q9NRP2: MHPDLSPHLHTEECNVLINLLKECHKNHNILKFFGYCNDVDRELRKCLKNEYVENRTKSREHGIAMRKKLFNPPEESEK
UniProt P39060, whole entry, looked up: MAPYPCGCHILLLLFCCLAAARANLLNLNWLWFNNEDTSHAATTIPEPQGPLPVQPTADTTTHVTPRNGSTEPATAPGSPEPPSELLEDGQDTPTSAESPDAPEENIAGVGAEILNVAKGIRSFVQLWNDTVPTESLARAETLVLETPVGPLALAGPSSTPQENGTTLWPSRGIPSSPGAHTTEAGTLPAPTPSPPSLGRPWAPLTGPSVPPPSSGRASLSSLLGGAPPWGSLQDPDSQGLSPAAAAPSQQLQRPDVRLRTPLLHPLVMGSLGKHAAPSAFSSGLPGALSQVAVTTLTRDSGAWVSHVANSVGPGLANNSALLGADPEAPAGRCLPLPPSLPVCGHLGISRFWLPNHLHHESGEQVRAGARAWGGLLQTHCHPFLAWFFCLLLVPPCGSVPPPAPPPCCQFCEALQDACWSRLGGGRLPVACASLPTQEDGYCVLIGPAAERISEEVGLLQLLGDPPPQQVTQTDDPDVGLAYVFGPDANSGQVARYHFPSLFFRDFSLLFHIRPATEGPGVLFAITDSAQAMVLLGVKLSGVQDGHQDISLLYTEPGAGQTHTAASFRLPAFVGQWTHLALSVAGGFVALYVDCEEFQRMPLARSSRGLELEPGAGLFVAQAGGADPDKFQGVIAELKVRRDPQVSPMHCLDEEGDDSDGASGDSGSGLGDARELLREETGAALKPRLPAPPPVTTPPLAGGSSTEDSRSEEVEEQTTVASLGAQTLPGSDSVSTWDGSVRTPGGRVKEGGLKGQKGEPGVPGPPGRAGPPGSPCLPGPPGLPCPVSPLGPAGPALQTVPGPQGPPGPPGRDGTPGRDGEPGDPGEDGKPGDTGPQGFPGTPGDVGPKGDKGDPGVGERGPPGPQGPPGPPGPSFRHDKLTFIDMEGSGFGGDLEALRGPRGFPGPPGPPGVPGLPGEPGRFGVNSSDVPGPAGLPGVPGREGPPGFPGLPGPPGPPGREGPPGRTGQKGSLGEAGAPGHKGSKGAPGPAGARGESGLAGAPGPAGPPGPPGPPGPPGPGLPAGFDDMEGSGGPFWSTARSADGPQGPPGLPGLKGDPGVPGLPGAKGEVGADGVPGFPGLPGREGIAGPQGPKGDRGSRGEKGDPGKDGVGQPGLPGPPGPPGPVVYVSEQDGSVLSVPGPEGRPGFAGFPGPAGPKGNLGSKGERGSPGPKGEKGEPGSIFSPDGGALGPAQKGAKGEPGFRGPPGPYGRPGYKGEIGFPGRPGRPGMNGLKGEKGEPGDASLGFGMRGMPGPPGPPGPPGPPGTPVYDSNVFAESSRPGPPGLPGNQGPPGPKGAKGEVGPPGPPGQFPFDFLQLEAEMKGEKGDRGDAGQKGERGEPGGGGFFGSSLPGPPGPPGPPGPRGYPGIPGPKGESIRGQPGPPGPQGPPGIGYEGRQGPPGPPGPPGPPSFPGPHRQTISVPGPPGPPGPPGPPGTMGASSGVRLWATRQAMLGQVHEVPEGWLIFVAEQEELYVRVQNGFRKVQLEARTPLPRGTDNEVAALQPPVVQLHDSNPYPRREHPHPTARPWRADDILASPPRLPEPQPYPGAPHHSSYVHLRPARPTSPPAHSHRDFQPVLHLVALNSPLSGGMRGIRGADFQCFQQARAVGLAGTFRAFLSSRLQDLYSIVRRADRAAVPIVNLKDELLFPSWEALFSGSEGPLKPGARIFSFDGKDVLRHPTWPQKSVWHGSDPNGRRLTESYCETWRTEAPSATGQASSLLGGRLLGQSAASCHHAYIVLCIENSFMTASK
UniProt Q9Y2B0: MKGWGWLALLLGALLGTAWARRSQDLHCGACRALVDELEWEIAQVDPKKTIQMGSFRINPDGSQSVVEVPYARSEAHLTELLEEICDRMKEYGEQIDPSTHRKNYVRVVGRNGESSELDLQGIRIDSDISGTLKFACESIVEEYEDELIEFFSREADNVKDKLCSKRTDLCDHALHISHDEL
UniProt O75175, whole entry, looked up: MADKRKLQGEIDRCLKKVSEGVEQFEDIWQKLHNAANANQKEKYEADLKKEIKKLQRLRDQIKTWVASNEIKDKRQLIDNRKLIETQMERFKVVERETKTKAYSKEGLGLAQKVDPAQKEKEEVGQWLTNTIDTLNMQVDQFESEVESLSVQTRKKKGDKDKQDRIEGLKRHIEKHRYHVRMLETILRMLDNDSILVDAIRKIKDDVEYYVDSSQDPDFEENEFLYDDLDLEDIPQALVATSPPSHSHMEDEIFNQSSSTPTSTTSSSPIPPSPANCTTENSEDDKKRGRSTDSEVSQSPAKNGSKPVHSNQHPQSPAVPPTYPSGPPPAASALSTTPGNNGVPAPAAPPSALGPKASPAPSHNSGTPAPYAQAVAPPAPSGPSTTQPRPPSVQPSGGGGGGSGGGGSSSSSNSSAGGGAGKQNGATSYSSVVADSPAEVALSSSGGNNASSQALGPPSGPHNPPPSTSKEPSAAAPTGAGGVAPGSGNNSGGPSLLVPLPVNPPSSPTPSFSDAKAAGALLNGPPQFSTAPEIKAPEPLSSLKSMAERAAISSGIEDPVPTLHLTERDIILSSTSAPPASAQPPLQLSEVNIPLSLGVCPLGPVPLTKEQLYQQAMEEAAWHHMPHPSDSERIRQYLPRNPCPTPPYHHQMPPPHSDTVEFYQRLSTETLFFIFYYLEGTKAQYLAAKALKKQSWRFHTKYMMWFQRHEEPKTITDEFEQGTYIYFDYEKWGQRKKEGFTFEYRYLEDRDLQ
UniProt Q9NY35: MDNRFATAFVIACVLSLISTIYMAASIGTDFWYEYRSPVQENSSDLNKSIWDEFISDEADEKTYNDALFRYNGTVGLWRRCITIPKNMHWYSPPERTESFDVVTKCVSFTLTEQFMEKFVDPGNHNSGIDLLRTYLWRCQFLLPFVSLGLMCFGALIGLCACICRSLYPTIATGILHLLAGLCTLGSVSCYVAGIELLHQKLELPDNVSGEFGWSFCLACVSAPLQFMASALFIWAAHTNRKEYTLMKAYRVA
UniProt Q14008: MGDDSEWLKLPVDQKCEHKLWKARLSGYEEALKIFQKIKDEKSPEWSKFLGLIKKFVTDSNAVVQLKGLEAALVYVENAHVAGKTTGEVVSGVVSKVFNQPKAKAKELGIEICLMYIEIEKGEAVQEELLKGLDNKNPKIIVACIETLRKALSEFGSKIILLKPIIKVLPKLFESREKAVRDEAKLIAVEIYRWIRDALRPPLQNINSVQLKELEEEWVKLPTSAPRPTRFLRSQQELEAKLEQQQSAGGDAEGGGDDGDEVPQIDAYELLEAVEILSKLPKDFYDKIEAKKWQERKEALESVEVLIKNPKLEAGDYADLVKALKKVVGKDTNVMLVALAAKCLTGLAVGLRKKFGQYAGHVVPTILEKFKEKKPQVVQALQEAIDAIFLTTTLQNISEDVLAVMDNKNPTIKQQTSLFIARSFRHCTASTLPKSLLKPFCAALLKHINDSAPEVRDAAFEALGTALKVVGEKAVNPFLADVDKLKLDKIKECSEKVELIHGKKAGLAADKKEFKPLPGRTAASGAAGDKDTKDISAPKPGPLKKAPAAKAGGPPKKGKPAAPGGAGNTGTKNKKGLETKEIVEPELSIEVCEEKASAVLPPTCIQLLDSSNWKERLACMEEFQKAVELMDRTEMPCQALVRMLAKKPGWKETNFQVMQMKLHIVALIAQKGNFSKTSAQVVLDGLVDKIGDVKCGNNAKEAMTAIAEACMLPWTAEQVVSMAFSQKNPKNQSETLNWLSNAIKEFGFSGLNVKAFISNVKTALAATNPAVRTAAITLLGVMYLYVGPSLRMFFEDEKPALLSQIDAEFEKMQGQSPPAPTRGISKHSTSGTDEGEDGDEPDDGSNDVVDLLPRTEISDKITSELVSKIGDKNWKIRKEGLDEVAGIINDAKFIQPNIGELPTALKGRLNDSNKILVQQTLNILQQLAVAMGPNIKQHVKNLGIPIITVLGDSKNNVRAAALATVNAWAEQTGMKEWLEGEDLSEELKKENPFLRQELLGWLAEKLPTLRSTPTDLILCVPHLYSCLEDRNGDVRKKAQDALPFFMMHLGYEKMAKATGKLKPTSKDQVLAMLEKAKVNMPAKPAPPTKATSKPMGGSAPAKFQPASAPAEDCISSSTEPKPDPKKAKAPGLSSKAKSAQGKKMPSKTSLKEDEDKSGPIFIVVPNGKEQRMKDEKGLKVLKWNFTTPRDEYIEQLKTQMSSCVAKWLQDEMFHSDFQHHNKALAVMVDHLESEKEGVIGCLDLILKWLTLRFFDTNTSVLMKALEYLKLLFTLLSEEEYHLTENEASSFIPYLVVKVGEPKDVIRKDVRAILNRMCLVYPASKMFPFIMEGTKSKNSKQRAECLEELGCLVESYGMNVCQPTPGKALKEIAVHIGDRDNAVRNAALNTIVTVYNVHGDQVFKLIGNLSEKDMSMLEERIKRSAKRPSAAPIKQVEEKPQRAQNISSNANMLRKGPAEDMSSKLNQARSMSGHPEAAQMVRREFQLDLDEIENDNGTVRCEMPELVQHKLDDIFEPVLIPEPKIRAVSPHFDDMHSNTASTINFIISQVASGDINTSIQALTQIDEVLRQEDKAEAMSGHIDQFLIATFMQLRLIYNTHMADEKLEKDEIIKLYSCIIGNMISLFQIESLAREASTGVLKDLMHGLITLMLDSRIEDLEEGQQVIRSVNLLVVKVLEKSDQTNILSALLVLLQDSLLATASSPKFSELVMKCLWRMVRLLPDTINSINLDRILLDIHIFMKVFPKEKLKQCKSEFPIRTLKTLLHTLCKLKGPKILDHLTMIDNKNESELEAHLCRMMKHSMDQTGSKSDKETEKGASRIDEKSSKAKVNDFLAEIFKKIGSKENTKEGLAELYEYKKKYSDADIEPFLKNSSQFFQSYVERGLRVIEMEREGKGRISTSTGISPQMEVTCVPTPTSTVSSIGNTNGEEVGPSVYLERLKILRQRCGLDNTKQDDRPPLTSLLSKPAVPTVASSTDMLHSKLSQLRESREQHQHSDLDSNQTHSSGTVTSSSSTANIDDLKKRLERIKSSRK
UniProt Q96DG6: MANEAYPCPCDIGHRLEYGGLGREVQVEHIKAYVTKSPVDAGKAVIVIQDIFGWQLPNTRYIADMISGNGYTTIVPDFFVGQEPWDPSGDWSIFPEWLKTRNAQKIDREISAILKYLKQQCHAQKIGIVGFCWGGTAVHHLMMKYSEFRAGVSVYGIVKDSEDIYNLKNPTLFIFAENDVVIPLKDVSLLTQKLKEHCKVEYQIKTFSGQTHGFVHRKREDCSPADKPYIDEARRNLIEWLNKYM
UniProt Q9Y696: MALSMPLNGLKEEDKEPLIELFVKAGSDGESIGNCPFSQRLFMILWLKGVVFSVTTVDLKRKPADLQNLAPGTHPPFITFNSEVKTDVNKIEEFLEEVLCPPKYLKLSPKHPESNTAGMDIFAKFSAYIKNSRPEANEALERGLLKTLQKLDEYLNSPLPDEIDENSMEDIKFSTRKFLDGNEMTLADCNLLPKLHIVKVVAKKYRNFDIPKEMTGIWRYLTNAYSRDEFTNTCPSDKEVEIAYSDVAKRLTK

Each target was assayed with NC(=O)Nc1cc(-c2cccc(F)c2)sc1C(=O)N[C@H]1CCCNC1 (assay: log2 fold change, soluble protein after heating vs DMSO (PISA); higher = thermal stabilisation; K562 cells, 10 uM, 30 min; active = over 0.2 and 3.5 SD of the protein, either way, in both replicates (recomputed)).
Outline: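 Values are thermal stability changes relative to control samples and are taken from duplicates. They are stated as log2 fold changes. Before quantification by TMTpro 16plex LC-MS/MS with equalised channel sums, K562 cells at 2×10^6 cells/mL were treated with 10 μM compound for 30 min, heated in aliquots for 3 min across 48°C-58°C, pooled, extracted in PBS with 0.5% NP-40 at 4°C, and centrifuged at 21,000xg for 90 min to give the soluble supernatant.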

log2 fold change, inactive:
CHURC1 isoform 2 (UniProt Q8WUH1) -0.008
CMPK1 (UniProt P30085) -0.034
CHMP6 (UniProt Q96FZ7) -0.055
COA3 (UniProt Q9Y2R0) -0.04
CLPB isoform 2 (UniProt Q9H078) -0.006
CMPK2 (UniProt Q5EBM0) 0.002
CMC1 (UniProt Q7Z7K0) 0.037
COA1 (UniProt Q9GZY4) -0.031
CINP isoform 3 (UniProt Q9BW66) -0.026
COA7 (UniProt Q96BR5) 0
CMC2 (UniProt Q9NRP2) 0.033
CIAO3 (UniProt Q9H6Q4) -0.012
CKMT1A (UniProt P12532) -0.03
COL18A1 (UniProt P39060) 0.038
CNPY2 (UniProt Q9Y2B0) -0.017
CLIC2 (UniProt O15247) -0.039
CLPTM1 (UniProt O96005) 0.029
CLGN (UniProt O14967) 0.035
CLCN7 (UniProt P51798) -0.009
CNOT3 (UniProt O75175) 0
CLDND1 (UniProt Q9NY35) -0.016
CNOT9 isoform 2 (UniProt Q92600) -0.047
CIAPIN1 (UniProt Q6FI81) -0.055
CKAP5 (UniProt Q14008) -0.005
CMBL (UniProt Q96DG6) -0.002
CLIP4 (UniProt Q8N3C7) -0.005
CKM (UniProt P06732) 0.026
CMAS (UniProt Q8NFW8) 0.002
CIAO1 (UniProt O76071) -0.03
CLIC4 (UniProt Q9Y696) -0.032
CLCC1 (UniProt Q96S66) -0.025
CLIP1 isoform 1 (UniProt P30622) 0.011

2 entries picked at random from those above, as already listed:
log2 fold change, inactive:
CMPK2 (UniProt Q5EBM0) 0.002
COA7 (UniProt Q96BR5) 0
